Source: PubChem BioAssay AID212 (DTP/NCI, 2004)
The list does not hold the whole screen: it is rich in T/C values a quarter to a half above the control, in often repeated tests (any T/C) and in doses without a T/C. Other doses and runs of a compound stand elsewhere. T/C: endpoint of the treated group in % of that of the vehicle group. Schedule codes are those of the source, taken here to give the interval after Q, in days (D) or hours (H), and the number of doses after X. Some T/C values are followed by the survivors on the day toxicity was checked, most often the fifth; without a count, all were alive then. Some doses were run more than once; the results are listed from low to high. Some entries give survivors of the animals treated and no T/C: the source files T/C as zero there, which appears to mark a toxic dose or a test without result, not a measured value. Counts of survivors are from the toxicity check (mostly the fifth day) where no day follows; animals may have died later. For survival time, this PubChem deposit counts one and a half times the control or more as active, and values a quarter to a half above the control carry no call in these data; other NCI protocols may use other cut-offs.

Tested on: BDF1 mice, colon carcinoma 38 sc, T/C %
Test: NCI In Vivo Anticancer Drug Screen. Data for tumor model Colon Carcinoma 38 (subcutaneous) in B6D2F1 (BDF1) mice
Outline: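 Ratio of survival or tumor size, compound-treated animals relative to vehicle controls, in tumor-bearing mice.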

[1] = T/C endpoint: median tumor weight (est.), dose: 12.5 mg/kg/injection, schedule: Q07DX002 (ip), vehicle: saline with Tween-80, evaluated on day 20, higher T/C = larger tumour
[2] = T/C endpoint: median tumor weight (est.), dose: 200.0 mg/kg/injection, schedule: Q07DX002 (ip), vehicle: Klucel (hydroxypropylcellulose) (HPC), higher T/C = larger tumour
[3] = T/C endpoint: median tumor weight (est.), dose: 400.0 mg/kg/injection, schedule: Q07DX002 (ip), vehicle: Klucel (hydroxypropylcellulose) (HPC), higher T/C = larger tumour

## COC1=C(C)C(=O)C2=C(C1=O)C1C3CC4=C(C(=O)C(OC)=C(C)C4=O)C(CNC(=O)C(C)=O)N3C(C#N)C(C2)N1C (stereo not drawn)
T/C endpoint: median tumor weight (est.), dose: 2.5 mg/kg/injection, schedule: Q07DX002 (ip), vehicle: Klucel (hydroxypropylcellulose) (HPC), higher T/C = larger tumour
  survivor count: 6 of 10 on day 20
T/C endpoint: median tumor weight (est.), dose: 5.0 mg/kg/injection, schedule: Q07DX002 (ip), vehicle: Klucel (hydroxypropylcellulose) (HPC), higher T/C = larger tumour
  survivor count: 3 of 10 on day 20
T/C endpoint: median tumor weight (est.), dose: 8.0 mg/kg/injection, schedule: Q07DX002 (ip), vehicle: Klucel (hydroxypropylcellulose) (HPC), higher T/C = larger tumour
  survivor count: 0 of 10 on day 20
T/C endpoint: median tumor weight (est.), dose: 10.0 mg/kg/injection, schedule: Q07DX002 (ip), vehicle: Klucel (hydroxypropylcellulose) (HPC), higher T/C = larger tumour
  survivor count: 0 of 10 on day 20

## CC(=O)NC(C=O)OCC=O (stereo not drawn)
T/C endpoint: median tumor weight (est.), dose: 12.5 mg/kg/injection, schedule: Q07DX002 (ip), vehicle: water, evaluated on day 20, higher T/C = larger tumour
  T/C: 142 % of control
T/C endpoint: median tumor weight (est.), dose: 400.0 mg/kg/injection, schedule: Q07DX002 (ip), vehicle: water, higher T/C = larger tumour
  survivor count: 2 of 10 on day 20

## CS(=O)(=O)CS(=O)(=O)OCCCl
T/C endpoint: median tumor weight (est.), dose: 25.0 mg/kg/injection, schedule: Q07DX002 (ip), vehicle: saline, evaluated on day 20, higher T/C = larger tumour
  T/C: 136 % of control
T/C endpoint: median tumor weight (est.), dose: 50.0 mg/kg/injection, schedule: Q07DX002 (ip), vehicle: saline with Tween-80, higher T/C = larger tumour
  survivor count: 6 of 10 on day 20
T/C endpoint: median tumor weight (est.), dose: 100.0 mg/kg/injection, schedule: Q07DX002 (ip), vehicle: saline with Tween-80, higher T/C = larger tumour
  survivor count: 0 of 10 on day 20
T/C endpoint: median tumor weight (est.), dose: 200.0 mg/kg/injection, schedule: Q07DX002 (ip), vehicle: saline with Tween-80, higher T/C = larger tumour
  survivor count: 0 of 10 on day 20
T/C endpoint: median tumor weight (est.), dose: 400.0 mg/kg/injection, schedule: Q07DX002 (ip), vehicle: saline with Tween-80, higher T/C = larger tumour
  survivor count: 0 of 10 on day 20

## CC(C)[C@](O)(C(=O)OCC1=CCN2CC[C@@H](O)[C@@H]12)[C@H](C)O
T/C endpoint: median tumor weight (est.), dose: 12.5 mg/kg/injection, schedule: Q07DX002 (ip), vehicle: saline, evaluated on day 20, higher T/C = larger tumour
  T/C: 144 % of control
T/C endpoint: median tumor weight (est.), dose: 25.0 mg/kg/injection, schedule: Q07DX002 (ip), vehicle: saline, higher T/C = larger tumour
  survivor count: 6 of 10 on day 20
T/C endpoint: median tumor weight (est.), dose: 100.0 mg/kg/injection, schedule: Q07DX002 (ip), vehicle: saline, evaluated on day 20, higher T/C = larger tumour
  T/C: 132 % of control [9 of 10 alive on day 20]
T/C endpoint: median tumor weight (est.), dose: 200.0 mg/kg/injection, schedule: Q07DX002 (ip), vehicle: water, evaluated on day 20, higher T/C = larger tumour
  T/C: 137 % of control
T/C endpoint: median tumor weight (est.), dose: 800.0 mg/kg/injection, schedule: Q07DX002 (ip), vehicle: water, higher T/C = larger tumour
  survivor count: 0 of 10 on day 20
T/C endpoint: median tumor weight (est.), dose: 1600.0 mg/kg/injection, schedule: Q07DX002 (ip), vehicle: water, higher T/C = larger tumour
  survivor count: 0 of 10 on day 20

## Cc1c(-c2ccc(C3CCCCC3)cc2)nc2ccc(F)cc2c1C(=O)O
T/C endpoint: median tumor weight (est.), dose: 200.0 mg/kg/injection, schedule: Q07DX002 (ip), vehicle: Klucel + Tween-80, evaluated on day 20, higher T/C = larger tumour
  T/C: 130 % of control [9 of 10 alive on day 20]

## BrC1c2cccc3cccc(c23)C1Br (stereo not drawn)
[1]
  T/C: 133 % of control
T/C endpoint: median tumor weight (est.), dose: 400.0 mg/kg/injection, schedule: Q07DX002 (ip), vehicle: saline with Tween-80, evaluated on day 20, higher T/C = larger tumour
  T/C: 126 % of control

## COc1cccc2c1C(=O)c1c(O)c3c(c(O)c1C2=O)CC(O)(/C(C)=N/NC(=O)CCC(=O)N/N=C(\C)C1(O)Cc2c(O)c4c(c(O)c2C(OC2CC(N)C(O)C(C)O2)C1)C(=O)c1c(OC)cccc1C4=O)CC3OC1CC(N)C(O)C(C)O1 (stereo not drawn)
T/C endpoint: median survival time, dose: 45.0 mg/kg/injection, schedule: Q07DX003 (sc), vehicle: water, higher T/C = longer survival
  T/C: 148 % of control
T/C endpoint: median tumor weight (est.), dose: 48.0 mg/kg/injection, schedule: Q07DX002 (ip), vehicle: water, higher T/C = larger tumour
  survivor count: 1 of 10 on day 20
T/C endpoint: median tumor weight (est.), dose: 64.0 mg/kg/injection, schedule: Q07DX002 (ip), vehicle: water, higher T/C = larger tumour
  survivor count: 5 of 10 on day 20
T/C endpoint: median tumor weight (est.), dose: 128.0 mg/kg/injection, schedule: Q07DX002 (ip), vehicle: distilled water + Tween-80, higher T/C = larger tumour
  survivor count: 2 of 10 on day 20
T/C endpoint: median tumor weight (est.), dose: 128.0 mg/kg/injection, schedule: Q07DX002 (ip), vehicle: water, higher T/C = larger tumour
  survivor count: 1 of 10 on day 20

## COc1ccc(Cl)[n+]([O-])n1
[2]
  survivor count: 2 of 10 on day 20

## COC(=O)C12OCC34C(CC5C(C)=CC(=O)C(O)C5(C)C3C(O)C1O)OC(=O)C(OC(=O)CC(C)C)C24 (stereo not drawn)
T/C endpoint: median tumor weight (est.), dose: 0.5 mg/kg/injection, schedule: Q07DX002 (ip), vehicle: saline + alcohol, evaluated on day 20, higher T/C = larger tumour
  T/C: 85, 113, 139 % of control
T/C endpoint: median tumor weight (est.), dose: 0.5 mg/kg/injection, schedule: Q07DX002 (ip), vehicle: saline + alcohol, higher T/C = larger tumour
  survivor count: 6 of 10 on day 20
T/C endpoint: median tumor weight (est.), dose: 1.0 mg/kg/injection, schedule: Q07DX002 (ip), vehicle: saline + alcohol, evaluated on day 20, higher T/C = larger tumour
  T/C: 82 [9 of 10 alive on day 20], 99, 103 % of control
T/C endpoint: median tumor weight (est.), dose: 1.0 mg/kg/injection, schedule: Q07DX002 (ip), vehicle: saline + alcohol, higher T/C = larger tumour
  survivor count: 4 of 10 on day 20
T/C endpoint: median tumor weight (est.), dose: 2.0 mg/kg/injection, schedule: Q07DX002 (ip), vehicle: saline + alcohol, evaluated on day 20, higher T/C = larger tumour
  T/C: 33 [9 of 10 alive on day 20], 58, 88 % of control
T/C endpoint: median tumor weight (est.), dose: 2.0 mg/kg/injection, schedule: Q07DX002 (ip), vehicle: saline + alcohol, higher T/C = larger tumour
  survivor count: 2 of 10 on day 20
T/C endpoint: median tumor weight (est.), dose: 4.0 mg/kg/injection, schedule: Q07DX002 (ip), vehicle: saline + alcohol, evaluated on day 20, higher T/C = larger tumour
  T/C: 9 [9 of 10 alive on day 20], 23 [8 of 10 alive on day 20], 67 % of control [7 of 10 alive on day 20]
T/C endpoint: median tumor weight (est.), dose: 4.0 mg/kg/injection, schedule: Q07DX002 (ip), vehicle: saline + alcohol, higher T/C = larger tumour
  survivor count: 1 of 10 on day 20
T/C endpoint: median tumor weight (est.), dose: 8.0 mg/kg/injection, schedule: Q07DX002 (ip), vehicle: saline + alcohol, evaluated on day 20, higher T/C = larger tumour
  T/C: 11 % of control [9 of 10 alive on day 20]
T/C endpoint: median tumor weight (est.), dose: 8.0 mg/kg/injection, schedule: Q07DX002 (ip), vehicle: saline + alcohol, higher T/C = larger tumour
  survivor count: 1 of 10 on day 20, 2 of 10 on day 20, 4 of 10 on day 20

## Ic1ncnc2c1ncn2C1CCCO1 (stereo not drawn)
T/C endpoint: median tumor weight (est.), dose: 200.0 mg/kg/injection, schedule: Q07DX002 (ip), vehicle: Klucel (hydroxypropylcellulose) (HPC), evaluated on day 20, higher T/C = larger tumour
  T/C: 132 % of control
[3]
  survivor count: 5 of 10 on day 20

## CCOC(=O)c1ccc(NC(=O)Nc2nncs2)cc1
T/C endpoint: median tumor weight (est.), dose: 12.5 mg/kg/injection, schedule: Q07DX002 (ip), vehicle: distilled water + Tween-80, evaluated on day 20, higher T/C = larger tumour
  T/C: 136 % of control [9 of 10 alive]
T/C endpoint: median tumor weight (est.), dose: 50.0 mg/kg/injection, schedule: Q07DX002 (ip), vehicle: distilled water + Tween-80, evaluated on day 20, higher T/C = larger tumour
  T/C: 127 % of control
T/C endpoint: median tumor weight (est.), dose: 400.0 mg/kg/injection, schedule: Q07DX002 (ip), vehicle: distilled water + Tween-80, evaluated on day 20, higher T/C = larger tumour
  T/C: 140 and 148 % of control [8 of 10 alive]

## CC(=O)OC1=NC(C)c2c1cc(OC(C)=O)[nH]c2=O (stereo not drawn)
T/C endpoint: median tumor weight (est.), dose: 12.5 mg/kg/injection, schedule: Q07DX002 (ip), vehicle: Klucel (hydroxypropylcellulose) (HPC), evaluated on day 20, higher T/C = larger tumour
  T/C: 135 % of control
T/C endpoint: median tumor weight (est.), dose: 50.0 mg/kg/injection, schedule: Q07DX002 (ip), vehicle: Klucel (hydroxypropylcellulose) (HPC), higher T/C = larger tumour
  survivor count: 5 of 8 on day 20
[2]
  survivor count: 2 of 10 on day 20 and 4 of 10 on day 20
[3]
  survivor count: 0 of 10 on day 20 and 1 of 10 on day 20

## CCN(CC)CCNc1ccc(CO)c2sc3ccccc3c(=O)c12
T/C endpoint: median tumor weight (est.), dose: 200.0 mg/kg/injection, schedule: Q07DX003 (ip), vehicle: clinical formulation, higher T/C = larger tumour
  survivor count: 2 of 10 on day 20

## O=C1N(Cl)C(=O)C(c2ccc(Cl)cc2)(c2ccc(Cl)cc2)N1Cl
[1]
  T/C: 126 % of control

## COC(C(=O)C(O)C(C)O)C1Cc2cc3cc(OC4CC(OC(C)=O)C(OC5CC(O)C(OC)C(C)O5)C(C)O4)cc(O)c3c(O)c2C(=O)C1OC1CC(OC2CC(OC3CC(C)(O)C(OC(=O)C(C)C)C(C)O3)C(O)C(C)O2)C(O)C(C)O1 (stereo not drawn)
T/C endpoint: median tumor weight (est.), dose: 0.25 mg/kg/injection, schedule: Q07DX002 (ip), vehicle: saline with Tween-80, evaluated on day 21, higher T/C = larger tumour
  T/C: 135 % of control

## CCS/C(SC)=C(/c1ccccc1)[P+](c1ccccc1)(c1ccccc1)c1ccccc1
T/C endpoint: median tumor weight (est.), dose: 6.0 mg/kg/injection, schedule: Q07DX002 (ip), vehicle: Klucel (hydroxypropylcellulose) (HPC), higher T/C = larger tumour
  survivor count: 2 of 10 on day 20
T/C endpoint: median tumor weight (est.), dose: 12.0 mg/kg/injection, schedule: Q07DX002 (ip), vehicle: Klucel (hydroxypropylcellulose) (HPC), higher T/C = larger tumour
  survivor count: 0 of 10 on day 20
T/C endpoint: median tumor weight (est.), dose: 24.0 mg/kg/injection, schedule: Q07DX002 (ip), vehicle: Klucel (hydroxypropylcellulose) (HPC), higher T/C = larger tumour
  survivor count: 0 of 10 on day 20

## CC(=O)OCC1(C)NC(=O)c2ccccc2O1 (stereo not drawn)
[1]
  T/C: 125 % of control
T/C endpoint: median tumor weight (est.), dose: 1800.0 mg/kg/injection, schedule: Q07DX002 (ip), vehicle: saline with Tween-80, higher T/C = larger tumour
  survivor count: 5 of 10 on day 20
